From paper PMC8184955

Amino acid sequences for entries named in this document (tags omitted). A change or cut given only in a name is not applied to a line headed by its entry. Residues count along the entry.
UniProt P16422, 24-314: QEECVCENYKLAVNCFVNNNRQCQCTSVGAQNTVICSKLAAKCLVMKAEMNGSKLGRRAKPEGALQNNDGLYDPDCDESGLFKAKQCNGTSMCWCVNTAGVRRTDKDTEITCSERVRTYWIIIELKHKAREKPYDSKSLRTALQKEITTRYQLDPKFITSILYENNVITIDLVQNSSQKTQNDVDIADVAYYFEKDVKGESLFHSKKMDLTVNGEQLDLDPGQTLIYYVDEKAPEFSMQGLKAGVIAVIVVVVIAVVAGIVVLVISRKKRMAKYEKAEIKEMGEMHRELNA
UniProt P15941: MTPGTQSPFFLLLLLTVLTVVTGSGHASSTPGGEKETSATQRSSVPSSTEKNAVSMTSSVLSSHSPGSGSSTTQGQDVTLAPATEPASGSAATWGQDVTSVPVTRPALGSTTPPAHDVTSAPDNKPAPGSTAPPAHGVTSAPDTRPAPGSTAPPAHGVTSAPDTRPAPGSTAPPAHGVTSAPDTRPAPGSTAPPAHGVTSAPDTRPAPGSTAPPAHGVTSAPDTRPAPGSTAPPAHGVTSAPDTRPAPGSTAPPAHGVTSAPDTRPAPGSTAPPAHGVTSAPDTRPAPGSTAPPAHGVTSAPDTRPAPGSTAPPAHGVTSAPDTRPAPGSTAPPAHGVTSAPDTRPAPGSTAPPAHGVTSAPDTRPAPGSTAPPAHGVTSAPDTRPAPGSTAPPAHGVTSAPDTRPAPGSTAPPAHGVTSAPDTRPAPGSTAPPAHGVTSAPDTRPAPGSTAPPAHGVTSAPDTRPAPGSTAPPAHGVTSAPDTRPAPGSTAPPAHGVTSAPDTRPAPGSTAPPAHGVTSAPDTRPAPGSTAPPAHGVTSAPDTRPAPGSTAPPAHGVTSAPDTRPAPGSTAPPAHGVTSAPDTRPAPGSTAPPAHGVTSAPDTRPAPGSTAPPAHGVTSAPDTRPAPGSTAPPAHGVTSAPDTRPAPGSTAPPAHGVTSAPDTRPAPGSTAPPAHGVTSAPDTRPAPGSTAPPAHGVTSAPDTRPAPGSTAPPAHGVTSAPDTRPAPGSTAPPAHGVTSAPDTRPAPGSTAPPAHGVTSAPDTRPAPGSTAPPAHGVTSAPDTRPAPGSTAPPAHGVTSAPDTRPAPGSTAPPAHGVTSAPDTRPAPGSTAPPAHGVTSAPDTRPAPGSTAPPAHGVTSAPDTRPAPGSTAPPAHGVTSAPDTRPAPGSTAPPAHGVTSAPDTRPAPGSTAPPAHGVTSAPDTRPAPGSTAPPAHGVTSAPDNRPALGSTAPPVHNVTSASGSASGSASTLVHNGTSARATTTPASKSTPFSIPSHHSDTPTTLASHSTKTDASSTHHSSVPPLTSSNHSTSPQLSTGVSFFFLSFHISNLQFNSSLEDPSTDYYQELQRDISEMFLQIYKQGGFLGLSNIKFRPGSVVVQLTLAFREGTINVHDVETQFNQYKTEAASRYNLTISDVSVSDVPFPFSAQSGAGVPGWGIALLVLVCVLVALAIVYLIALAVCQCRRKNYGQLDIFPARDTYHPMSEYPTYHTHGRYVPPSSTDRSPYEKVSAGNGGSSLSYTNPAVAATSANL
UniProt P19338, 2-710: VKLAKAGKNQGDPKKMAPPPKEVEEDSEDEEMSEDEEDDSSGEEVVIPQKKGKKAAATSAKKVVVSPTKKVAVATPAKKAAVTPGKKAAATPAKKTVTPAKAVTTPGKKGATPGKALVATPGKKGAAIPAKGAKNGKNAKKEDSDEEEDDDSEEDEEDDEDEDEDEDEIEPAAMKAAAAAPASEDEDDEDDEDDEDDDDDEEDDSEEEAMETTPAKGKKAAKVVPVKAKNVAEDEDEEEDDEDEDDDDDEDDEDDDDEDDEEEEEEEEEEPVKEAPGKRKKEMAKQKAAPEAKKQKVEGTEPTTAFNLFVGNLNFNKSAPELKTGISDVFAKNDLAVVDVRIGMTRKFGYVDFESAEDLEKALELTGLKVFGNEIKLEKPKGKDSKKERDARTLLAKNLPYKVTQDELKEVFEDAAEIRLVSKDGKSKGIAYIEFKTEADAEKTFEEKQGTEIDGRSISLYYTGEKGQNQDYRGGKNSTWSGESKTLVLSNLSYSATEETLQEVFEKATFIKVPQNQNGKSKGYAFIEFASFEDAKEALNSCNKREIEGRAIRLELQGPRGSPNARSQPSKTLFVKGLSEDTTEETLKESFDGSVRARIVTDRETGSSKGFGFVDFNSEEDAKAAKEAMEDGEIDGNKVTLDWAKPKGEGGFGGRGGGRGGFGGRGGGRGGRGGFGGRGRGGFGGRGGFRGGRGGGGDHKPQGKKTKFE

Assays:
HER2 = HER2 (UniProt P04626); assay: live-cell staining, whole-cell Raman; conditions: 5 mM MgCl2, 10 nM Rdot conjugate; 5' amino modifier C6 (5AmMC6); DPBS, 5 mM MgCl2, 1 mg/mL yeast tRNA, 1% BSA; 10 nM Rdot conjugates, 30 min on ice; aptamers annealed at 90 C for 4 min then slowly cooled to RT; protein on the cell surface; label: Rdot2052 (40 nm PEGylated Raman dot, via 5' amine); single-stranded DNA
EpCAM = EpCAM (UniProt P16422); assay: live-cell staining, whole-cell Raman and SRS imaging; conditions: 5 mM MgCl2, 10 nM Rdot conjugate; 5' amino modifier C6 (5AmMC6); DPBS, 5 mM MgCl2, 1 mg/mL yeast tRNA, 1% BSA; 10 nM Rdot conjugates, 30 min on ice; aptamers annealed at 90 C for 4 min then slowly cooled to RT; protein on the cell surface; label: Rdot2194 (40 nm PEGylated Raman dot, via 5' amine); single-stranded DNA
MUC1 = MUC1 (UniProt P15941); assay: live-cell staining, whole-cell Raman; conditions: 5 mM MgCl2, 10 nM Rdot conjugate; 5' amino modifier C6 (5AmMC6); DPBS, 5 mM MgCl2, 1 mg/mL yeast tRNA, 1% BSA; 10 nM Rdot conjugates, 30 min on ice; aptamers annealed at 90 C for 4 min then slowly cooled to RT; protein on the cell surface; label: Rdot2175 (40 nm PEGylated Raman dot, via 5' amine); single-stranded DNA
nucleolin = nucleolin (UniProt P19338); assay: live-cell staining, whole-cell Raman; conditions: 5 mM MgCl2, 10 nM Rdot conjugate; 5' amino modifier C6 (5AmMC6); DPBS, 5 mM MgCl2, 1 mg/mL yeast tRNA, 1% BSA; 10 nM Rdot conjugates, 30 min on ice; aptamers annealed at 90 C for 4 min then slowly cooled to RT; protein on the cell surface; label: Rdot2218 (40 nm PEGylated Raman dot, via 5' amine); single-stranded DNA

TTTTTTAACCGCCCAAATCCCTAAGAGTCTGCACTTGTCATTTTGTATATGTATTTGGTTTTTGGCTCTCACAGACACACTACACACGCACA [HER2 aptamer]
binding result (HER2): binds

TTTTTTCACTACAGAGGTTGCGTCTGTCCCACGTTGTCATGGGGGGTTGGCCTG [EpCAM aptamer]
binding result (EpCAM): binds

TTTTTTGCAGTTGATCCTTTGGATACCCTGG [MUC1 aptamer]
binding result (MUC1): binds

TTTTTTGGTGGTGGTGGTTGTGGTGGTGGTGG [Nucleolin aptamer]
binding result (nucleolin): binds

The exact form of at least one protein or probe is not confirmed. Results from cells or extracts need not show a direct contact. At least one verdict rests on a figure or table, not on a statement of the authors.
